Measurements as given in US8519096B2, “Citrullinated peptides for diagnosing and prognosing rheumatoid arthritis” (Nestec S.A., priority 2009, dated 2013).
Non-standard residues stand in square brackets, D forms with d. *: point of attachment. Biotin = O=C1N[C@H]2[C@H](CS[C@H]2CCCCC(=O)*)N1; Cit = NC(=O)NCCC[C@H](N)C(=O)O

Test system: anti-citrullinated protein antibodies
Experiment: Sensitivity and specificity of RA diagnosis using synthetic citrullinated fibrin and vimentin peptides
Design: species or system human
Conditions: Table 10; for Specificity (%): Normal Control; for Sensitivity (%): RA Patients

Substance	Specificity (%)	Sensitivity (%)
Biotin-GGGATRSSAVRL[Cit]SSVPGVRLLQDS-NH2 [VMT3]	95%	50%
Biotin-GGGAT[Cit]SSAVRLRSSVPGVRLLQDS-NH2 [VMT1]	95%	45%
